In US20250206813A1 (NVH MEDICINAL, published 2025):
These are yes or no findings as the source states them, for the method shown. Some results given as binding are weak or reduced against the parent protein; the word gives no strength. One block for each binder: values may come before it.

Experiments:
CUB2 domain of PCPE-1 [1] = biological target: T1, CUB2 domain of PCPE-1 (human, UniProt Q15113 159-273); assay: SPR competition: VHH (50 nM) co-injected with CUB2 (250 nM) on immobilized PCPE-1
T1 construct: domain: CUB2
T1 sequence (looked up): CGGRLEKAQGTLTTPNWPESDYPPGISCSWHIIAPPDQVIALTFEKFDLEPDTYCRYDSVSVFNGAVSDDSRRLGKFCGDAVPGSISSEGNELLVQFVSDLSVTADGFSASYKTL

CUB2 domain of PCPE-1 [2] = biological target: T1, CUB2 domain of PCPE-1; assay: SPR competition: VHH (50 nM) co-injected with the soluble CUB2 domain (250 nM) over immobilized PCPE-1
CUB1 domain of PCPE-1 [3] = biological target: T2, CUB1 domain of PCPE-1 (human, UniProt Q15113 37-149); assay: SPR competition: VHH (50 nM) co-injected with CUB1 (250 nM) on immobilized PCPE-1
T2 construct: domain: CUB1
T2 sequence (looked up): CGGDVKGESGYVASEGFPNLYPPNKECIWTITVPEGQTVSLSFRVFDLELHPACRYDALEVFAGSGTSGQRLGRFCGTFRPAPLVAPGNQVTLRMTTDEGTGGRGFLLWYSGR

CUB1 domain of PCPE-1 [4] = biological target: T2, CUB1 domain of PCPE-1; assay: SPR competition: VHH (50 nM) co-injected with the soluble CUB1 domain (250 nM) over immobilized PCPE-1
[5] = biological target: T3, PCPE-1 (Procollagen C-proteinase enhancer-1) glycoprotein, human (human) (UniProt Q15113); assay: SPR (Biacore T200), 200 nM VHH injected over immobilized PCPE-1 (645 RU)
T3 sequence (looked up): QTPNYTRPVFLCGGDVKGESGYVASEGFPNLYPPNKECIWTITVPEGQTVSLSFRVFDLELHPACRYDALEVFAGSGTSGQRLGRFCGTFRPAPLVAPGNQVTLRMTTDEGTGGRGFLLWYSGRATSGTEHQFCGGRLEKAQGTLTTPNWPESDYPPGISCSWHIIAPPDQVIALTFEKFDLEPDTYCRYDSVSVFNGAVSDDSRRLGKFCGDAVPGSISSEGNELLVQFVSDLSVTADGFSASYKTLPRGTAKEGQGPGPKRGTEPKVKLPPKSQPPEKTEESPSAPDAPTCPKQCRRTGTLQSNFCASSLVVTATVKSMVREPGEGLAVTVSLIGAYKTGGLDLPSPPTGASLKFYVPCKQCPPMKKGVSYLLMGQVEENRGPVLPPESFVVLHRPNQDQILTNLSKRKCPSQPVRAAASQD

[6] = biological target: T3, PCPE-1 (Procollagen C-proteinase enhancer-1) glycoprotein, human (human); assay: SPR, VHH injected on immobilized PCPE-1

binding (CUB2 domain of PCPE-1 [1]): binds
binding (CUB2 domain of PCPE-1 [2]): binds
B1: VHH-I5 (VHH)
VHH: QVQLVESGGGLVQPGGFLRLLCTASGNIFSSNTMGWYRRAPGKQREWVASISKGGSTNYADSVKDRFTISRSITKNTVYLQMVNLKPEDTAVYYCNPVPDSDNYASGQGTQVTVSS
notes: Llama nanobody, pHEN6 vector, pelB signal, produced in E. coli periplasm; also called nanobody-I5; 15; not shown: C-terminal 6-His tag

binding (CUB1 domain of PCPE-1 [3]): binds
binding (CUB1 domain of PCPE-1 [4]): binds
B2: VHH-H4 (VHH)
VHH: EVQLQASGGGFVQPGGSLRLSCAASGFTSEISNMGWFRQAPGKEREFVSAISGTHTTQTYYADSVKGRFTISRDNSKNTVYLQMNSLRAEDTATYYCAAEQDMSDLWLGSYWGQGTQVTVSS
notes: Synthetic nanobody (hsd2ab library), pET29b(+) vector, pelB signal; also called nanobody-H4; not shown: C-terminal 6-His tag

binding (CUB2 domain of PCPE-1 [1]): binds
binding (CUB2 domain of PCPE-1 [2]): binds
B3: VHH-I7 (VHH)
VHH: QVQLVESGGGLVPPGGSLKLSCTASGSIFSSNVMGWYRRAPGKQREWVASISRGGGTNYPDSVKGRFTVSRDIAKNTVYLQISSLKPEDTAVYYCNPIPYSGDYVSGQGTQVTVSS
notes: Llama nanobody, pHEN6 vector, pelB signal, produced in E. coli periplasm; also called nanobody I7; 17; not shown: C-terminal 6-His tag

binding [5]: no binding (tested: 200 nM)
binding [6]: no binding (tested: 200 nM)
B4: VHH-I10 (VHH, not shown: small tags and cut ends)
VHH: QVQLVESGGGLVQPGGSLTLSCVISGTIFNDGSSVNAMNWYREAPGKGRVLIASLDSAGITKYADSVNGRFTISADNARETVTLQMNNLAPEDTAVYYCAATKVWNSWYATYGIDYWGKGTQVTVSS

binding (CUB1 domain of PCPE-1 [3]): binds
binding (CUB1 domain of PCPE-1 [4]): binds
B5: VHH-H10 (VHH)
VHH: EVQLQASGGGFVQPGGSLRLSCAASGYGWWIYEMGWFRQAPGKEREFVSAISWADGTRTYYADSVKGRFTISRDNSKNTVYLQMNSLRAEDTATYYCAIYILEGTQGVPIYWGQGTQVTVSS
notes: Synthetic nanobody (hsd2ab library), pET29b(+) vector, pelB signal; not shown: C-terminal 6-His tag

binding (CUB2 domain of PCPE-1 [1]): binds
binding (CUB2 domain of PCPE-1 [2]): binds
B6: VHH-I3 (VHH)
VHH: QVQLVESGGGLVEPGGSLRLSCAVSGSTFSMNVMGWYRQAPGKHREWVGSIGTGGGTNYPDSVKGRFTISRDNVKKTVYLQMNSLKPEDTAVYYCNKIPHNWGWGQGTQVTVSS
notes: Llama nanobody, pHEN6 vector, pelB signal, produced in E. coli periplasm; also called nanobody I3; 13; not shown: C-terminal 6-His tag
